# Screening data

Source: PubChem BioAssay AID504749 (NCATS, 2011).

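A panel of P. falciparum strains inside erythrocytes is exposed to compounds for three days, then a DNA-binding dye reports the amount of parasite DNA. Each compound was titrated across a series from about 0.000037 to 29 µM. The number is the fitted AC50, the concentration giving a half-maximal change in signal; a lower value means higher potency, whether the curve shows a decrease or an increase. Calls follow the curve class and fit quality: every row here is inconclusive, covering signal-raising curves and weak, poorly fitted, partial or highest-dose-only inhibition curves.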

Values are in µM. All entries here are filed as inconclusive. These entries are mostly ones the record files as inconclusive; other results of the assay are not listed here. A potency from a partial, single-point or poor curve is only a rough figure.

CCCN1CCCC[C@H]1C(=O)Nc1c(C)cccc1C [CP325] read Potency 12 µM (inhibitor, partial curve, poor fit). Result for CCCN1CCCC[C@H]1C(=O)Nc1c(C)cccc1C [DIV17] was Potency 19.01 µM (inhibitor, single point). Result for CCCN1CCCC[C@H]1C(=O)Nc1c(C)cccc1C [CP203] was Potency 21.33 µM (inhibitor, partial curve, poor fit). For CCCN1CCCC[C@H]1C(=O)Nc1c(C)cccc1C [Dd2] the result was Potency 7.08 µM (inhibitor, partial curve).

CCCN1CCCC[C@H]1C(=O)Nc1c(C)cccc1C [CP335] gave Potency 12 µM (inhibitor, partial curve, poor fit). CCCN1CCCC[C@H]1C(=O)Nc1c(C)cccc1C [CP265] read Potency 12.59 µM (inhibitor, single point). CCCN1CCCC[C@H]1C(=O)Nc1c(C)cccc1C [CP268] gave Potency 16.94 µM (inhibitor, partial curve, poor fit). With CCCN1CCCC[C@H]1C(=O)Nc1c(C)cccc1C [CP297] the assay gave Potency 4.256 µM (inhibitor, partial curve, poor fit).

With CCCN1CCCC[C@H]1C(=O)Nc1c(C)cccc1C [CP305] the assay gave Potency 15.1 µM (inhibitor, single point). CCCN1CCCC[C@H]1C(=O)Nc1c(C)cccc1C [7G8] read Potency 11.22 µM (inhibitor, single point). With O=C(CCN1CCC(c2ccccc2)C1)c1ccc2c(c1)OCCO2 (centres unmarked) [DIV17] the assay gave Potency 12 µM (inhibitor, partial curve, poor fit). O=C(CCN1CCC(c2ccccc2)C1)c1ccc2c(c1)OCCO2 (centres unmarked) [P93_24] read Potency 3.981 µM (inhibitor, single point).

O=C(CCN1CCC(c2ccccc2)C1)c1ccc2c(c1)OCCO2 (centres unmarked) [P94_40] gave Potency 2.818 µM (inhibitor, single point). Result for O=C(CCN1CCC(c2ccccc2)C1)c1ccc2c(c1)OCCO2 (centres unmarked) [DIV14] was Potency 12 µM (inhibitor, partial curve, poor fit). With Nc1nc2c(c(=O)[nH]1)N(C=O)[C@H](CNc1ccc(C(=O)N[C@@H](CCC(=O)O)C(=O)O)cc1)CN2 [CP291] the assay gave Potency 8.087 µM (inhibitor, single point). CNC1CC(N)[C@H](O)[C@@H](O[C@@H]2OC(CO)C3OC4(OC(C(N)CO)C(O)C(O)C4O)O[C@@H]3[C@H]2O)C1O (some centres unmarked) [W2] gave Potency 0.3381 µM (inhibitor, partial curve, poor fit).

CCOc1ccc2nc3cc(N)ccc3c(N)c2c1 [PC26] read Potency 19.01 µM (inhibitor, single point).

Once more, the final 2:

SMILES	condition	Potency (µM)	curve as filed
CNC1CC(N)[C@H](O)[C@@H](O[C@@H]2OC(CO)C3OC4(OC(C(N)CO)C(O)C(O)C4O)O[C@@H]3[C@H]2O)C1O (some centres unmarked)	W2	0.3381	inhibitor, partial curve, poor fit
CCOc1ccc2nc3cc(N)ccc3c(N)c2c1	PC26	19.01	inhibitor, single point